± gives the standard deviation of the averaged measurements. The reference is the same well before dosing, and untreated signal decays as well.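 Fibroblast labels name human fibroblasts: mostly primary ones from tissues such as uterus (C12385, HUF), lung (H6013), bone (Hs27A), adrenal (HADF) and skin (WS1), plus mammary HMF and breast cancer-associated Hs343T. The cancer cells are basal-like or mesenchymal-like triple-negative breast cancer lines. The paper calls a changed response a hit when it shifts by more than 3x the replicate standard deviation. The tissue of the other fibroblasts is not given here.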
Test system: HCC1143
Test: relative JC-1 red fluorescence (viability) vs pre-drug, coculture with fibroblast (fraction); higher = more viable cancer cells
Method: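 JC-1 labelled TNBC cells cocultured 1:1 (1,500 cells each) with CellTrace Violet stained primary or stromal fibroblasts in 384-well plates in FluoroBrite medium, treated with one of 42 anticancer drugs at 0.1, 1, 10 or 100 uM. JC-1 red fluorescence (mitochondrial integrity in cancer cells only) was read by plate reader every 8 h for 72 h. Values are normalised to each well's pre-drug value. The stock of one drug was tenfold lower, so its dose labels may be too high.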

N.N.[Cl][Pt][Cl] [Cisplatin]
relative JC-1 red fluorescence
Conditions	8 h	16 h	24 h	32 h	40 h	48 h	56 h	64 h	72 h
10 µM, coculture fibroblast: C12385	0.847 ± 0.019	0.763 ± 0.009	0.7038 ± 0.0069	0.652 ± 0.0079	0.606 ± 0.025	0.581 ± 0.026	0.561 ± 0.04	0.526 ± 0.047	0.52 ± 0.054
10 µM, coculture fibroblast: H6013	0.744 ± 0.0066	0.656 ± 0.01	0.6155 ± 0.0057	0.614 ± 0.016	0.55 ± 0.024	0.544 ± 0.027	0.521 ± 0.029	0.508 ± 0.026	0.501 ± 0.038
10 µM, coculture fibroblast: H6019	0.803 ± 0.0093	0.734 ± 0.035	0.697 ± 0.03	0.645 ± 0.036	0.609 ± 0.051	0.58 ± 0.056	0.545 ± 0.062	0.523 ± 0.071	0.509 ± 0.077
10 µM, coculture fibroblast: H6076	0.8042 ± 0.0064	0.779 ± 0.052	0.737 ± 0.029	0.698 ± 0.00095	0.664 ± 0.021	0.651 ± 0.017	0.63 ± 0.018	0.615 ± 0.011	0.6285 ± 0.0016
10 µM, coculture fibroblast: H6231	0.826 ± 0.043	0.828 ± 0.017	0.7398 ± 0.0008	0.624 ± 0.035	0.6498 ± 0.00067	0.621 ± 0.014	0.578 ± 0.022	0.549 ± 0.026	0.524 ± 0.025
10 µM, coculture fibroblast: HADF	0.7125 ± 0.0008	0.646 ± 0.0072	0.612 ± 0.021	0.628 ± 0.028	0.534 ± 0.02	0.517 ± 0.021	0.496 ± 0.017	0.482 ± 0.018	0.504 ± 0.042
10 µM, coculture fibroblast: HCFa	0.785 ± 0.021	0.705 ± 0.025	0.673 ± 0.037	0.665 ± 0.062	0.587 ± 0.065	0.56 ± 0.072	0.534 ± 0.08	0.516 ± 0.081	0.512 ± 0.091
10 µM, coculture fibroblast: HCPF	0.7897 ± 0.0063	0.81 ± 0.034	0.767 ± 0.019	0.646 ± 0.013	0.674 ± 0.02	0.646 ± 0.018	0.611 ± 0.02	0.579 ± 0.026	0.567 ± 0.021
10 µM, coculture fibroblast: HHSteC	0.8189 ± 0.0058	0.742 ± 0.011	0.707 ± 0.017	0.671 ± 0.031	0.604 ± 0.045	0.572 ± 0.052	0.543 ± 0.05	0.528 ± 0.047	0.504 ± 0.04
10 µM, coculture fibroblast: HMF	0.7755 ± 0.002	0.798 ± 0.0055	0.737 ± 0.004	0.658 ± 0.05	0.667 ± 0.019	0.639 ± 0.042	0.602 ± 0.058	0.582 ± 0.061	0.564 ± 0.067
10 µM, coculture fibroblast: HPFa	0.909 ± 0.013	0.81 ± 0.013	0.781 ± 0.037	0.694 ± 0.04	0.65 ± 0.046	0.637 ± 0.06	0.602 ± 0.049	0.588 ± 0.051	0.572 ± 0.048
10 µM, coculture fibroblast: HUF	0.86141 ± 0.00075	0.752 ± 0.047	0.677 ± 0.097	0.598 ± 0.12	0.542 ± 0.12	0.509 ± 0.14	0.469 ± 0.14	0.446 ± 0.15	0.428 ± 0.15
10 µM, coculture fibroblast: Hs5	0.858 ± 0.013	0.836 ± 0.046	0.81 ± 0.033	0.784 ± 0.0089	0.723 ± 0.018	0.699 ± 0.0077	0.6884 ± 0.0012	0.672 ± 0.0023	0.6822 ± 0.0044
10 µM, coculture fibroblast: Hs27A	0.717 ± 0.042	0.659 ± 0.042	0.65 ± 0.067	0.702 ± 0.088	0.605 ± 0.092	0.616 ± 0.09	0.602 ± 0.089	0.594 ± 0.087	0.619 ± 0.1
10 µM, coculture fibroblast: Hs343T	0.8017 ± 0.004	0.81 ± 0.046	0.741 ± 0.053	0.657 ± 0.037	0.654 ± 0.033	0.622 ± 0.036	0.587 ± 0.038	0.567 ± 0.031	0.542 ± 0.043
10 µM, coculture fibroblast: WS1	0.805 ± 0.017	0.7205 ± 0.0016	0.6615 ± 0.0042	0.591 ± 0.019	0.537 ± 0.033	0.504 ± 0.034	0.471 ± 0.033	0.445 ± 0.029	0.433 ± 0.028
100 µM, coculture fibroblast: C12385	0.732 ± 0.036	0.593 ± 0.049	0.528 ± 0.064	0.48 ± 0.07	0.427 ± 0.075	0.412 ± 0.072	0.396 ± 0.065	0.373 ± 0.07	0.369 ± 0.077
100 µM, coculture fibroblast: H6013	0.66 ± 0.053	0.524 ± 0.075	0.473 ± 0.075	0.433 ± 0.07	0.4 ± 0.048	0.401 ± 0.039	0.374 ± 0.033	0.361 ± 0.026	0.293 ± 0.022
100 µM, coculture fibroblast: H6019	0.696 ± 0.018	0.559 ± 0.072	0.49 ± 0.091	0.41 ± 0.1	0.363 ± 0.11	0.341 ± 0.11	0.308 ± 0.1	0.279 ± 0.094	0.264 ± 0.086
100 µM, coculture fibroblast: H6076	0.795 ± 0.02	0.725 ± 0.024	0.636 ± 0.022	0.588 ± 0.017	0.512 ± 0.011	0.489 ± 0.021	0.454 ± 0.033	0.429 ± 0.029	0.431 ± 0.036
100 µM, coculture fibroblast: H6231	0.813 ± 0.022	0.717 ± 0.056	0.634 ± 0.085	0.629 ± 0.064	0.542 ± 0.085	0.511 ± 0.064	0.479 ± 0.044	0.455 ± 0.053	0.457 ± 0.046
100 µM, coculture fibroblast: HADF	0.661 ± 0.02	0.5545 ± 0.001	0.51 ± 0.011	0.468 ± 0.0049	0.422 ± 0.0045	0.418 ± 0.013	0.386 ± 0.011	0.375 ± 0.0092	0.309 ± 0.0098
100 µM, coculture fibroblast: HCFa	0.689 ± 0.024	0.542 ± 0.0059	0.48 ± 0.017	0.439 ± 0.029	0.399 ± 0.019	0.383 ± 0.011	0.36 ± 0.0036	0.345 ± 0.0021	0.286 ± 0.0053
100 µM, coculture fibroblast: HCPF	0.793 ± 0.0086	0.788 ± 0.013	0.701 ± 0.0043	0.614 ± 0.029	0.61 ± 0.022	0.581 ± 0.035	0.556 ± 0.044	0.531 ± 0.055	0.521 ± 0.066
100 µM, coculture fibroblast: HHSteC	0.775 ± 0.092	0.656 ± 0.098	0.621 ± 0.13	0.57 ± 0.14	0.529 ± 0.17	0.521 ± 0.18	0.483 ± 0.18	0.471 ± 0.18	0.402 ± 0.17
100 µM, coculture fibroblast: HMF	0.773 ± 0.005	0.704 ± 0.018	0.5901 ± 0.0056	0.533 ± 0.013	0.472 ± 0.018	0.448 ± 0.025	0.42 ± 0.026	0.402 ± 0.038	0.393 ± 0.033
100 µM, coculture fibroblast: HPFa	0.781 ± 0.0083	0.6206 ± 0.0028	0.5679 ± 0.0055	0.502 ± 0.0091	0.46244 ± 8.7e-05	0.453 ± 0.007	0.413 ± 0.008	0.4 ± 0.0087	0.3831 ± 0.0024
100 µM, coculture fibroblast: HUF	0.759 ± 0.061	0.56 ± 0.14	0.458 ± 0.19	0.372 ± 0.18	0.319 ± 0.18	0.308 ± 0.19	0.275 ± 0.18	0.258 ± 0.18	0.247 ± 0.19
100 µM, coculture fibroblast: Hs5	0.831 ± 0.024	0.774 ± 0.032	0.717 ± 0.043	0.705 ± 0.041	0.614 ± 0.047	0.585 ± 0.051	0.554 ± 0.048	0.532 ± 0.062	0.539 ± 0.068
100 µM, coculture fibroblast: Hs27A	0.641 ± 0.0071	0.545 ± 0.018	0.531 ± 0.02	0.542 ± 0.016	0.48 ± 0.032	0.504 ± 0.039	0.482 ± 0.032	0.473 ± 0.038	0.39 ± 0.031
100 µM, coculture fibroblast: Hs343T	0.7891 ± 0.0013	0.703 ± 0.016	0.622 ± 0.025	0.586 ± 0.025	0.502 ± 0.017	0.477 ± 0.023	0.44 ± 0.026	0.424 ± 0.025	0.415 ± 0.032
100 µM, coculture fibroblast: WS1	0.702 ± 0.017	0.53787 ± 0.00035	0.471 ± 0.013	0.393 ± 0.014	0.343 ± 0.011	0.317 ± 0.0054	0.2886 ± 0.00032	0.268 ± 0.0056	0.262 ± 0.0053
